The structures appear in SMILES notation. The list shows a part of the results. Shown are side measurements of this screen, not its main read-out; they come without a call. Compounds called inactive in the main read-out are mostly missing here. Words in brackets tell the shape of the fitted curve; partial curves, single points and poor fits give uncertain potencies.

The assay can be described thus: qHTS Assay for Lipid Storage Modulators in Drosophila S3 Cells.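 On cell number change: cells counted by Cell Tracker Red CMTPX staining in the red channel.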 The settings on record: BODIPY lipid droplet fluorescence, 18-24 h; for cell number change: measured here: cell count max response, cells fed with added oleic acid. The essentials: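 Drosophila S3 cells loaded with oleic acid (400 uM, as added) and compounds at several concentrations; lipid droplets imaged by 488-nm laser-scanning cytometry, 500–530 nm intensity and object ratio to cell channel. Percent activity normalized to 20 uM Triacsin C.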
For orientation: qHTS replaces the single test concentration by a dilution series.

The mark [1] stands for this setting: measured here: lipid fluorescence (Fed channel) AC50, cells fed with added oleic acid.
The mark [2] stands for this setting: measured here: cell number channel AC50, cells fed with added oleic acid.

By AC50 is commonly meant the concentration giving half of the maximal activity seen. A lower AC50 goes with activity at low concentration. For `CC(=O)c1ccc(OCC(=O)NC2CCS(=O)(=O)C2)cc1` (stereo not drawn), the cell number change was -4.74%. For the same molecule, the concentration at half-maximal activity (AC50) under setting [1] is 7.31 µM [falling, single point].
With `CN1CCC(N(C)CC(=O)Nc2ccccc2N2CCOCC2)CC1`, the cell number change was -7.15%. For the same molecule, the half-maximal activity concentration (AC50) under setting [1] was 1.64 µM [falling, partial curve].
Consider `COc1ccc(NC(=O)/C(Cl)=C(/Cl)S(=O)(=O)Cc2ccc(C)cc2)cn1`, for which the cell number change was -83.1%. Further, the AC50 under setting [2] is 14.6 µM [falling, partial curve]. Further, under setting [1], the concentration at half-maximal activity (AC50) is 13 µM [falling, partial curve].
Consider `CC1CCN(C(=O)CN2C(=O)NC3(CCC(C)CC3)C2=O)CC1` (stereo not drawn), for which the cell number change stood at 16%. Further, the concentration at half-maximal activity (AC50) under setting [1] was 0.0651 µM [rising, full curve, poor fit].
Consider `O=C(NC1CCCC1)c1ccc(CN2CCOCC2)cc1`, for which the cell number change was 35.5%. Also, the half-maximal activity concentration (AC50) under setting [2] was 7.31 µM [rising, partial curve, poor fit].
As for `COc1cccc2cc(C(=O)NC(C)c3ccccc3)c(=O)oc12` (stereo not drawn), the cell number change worked out at 18.4%. Also, the concentration at half-maximal activity (AC50) under setting [1] is 29.1 µM [rising, single point].
In the case of `CSc1cccc(N2CC(C(=O)NCCN3C(=O)S/C(=C\c4cccnc4)C3=O)CC2=O)c1` (stereo not drawn), the cell number change is -31.4%. Also, the AC50 under setting [2] is 11.6 µM [falling, partial curve, poor fit]. The concentration at half-maximal activity (AC50) under setting [1] is 3.26 µM [rising, partial curve].
Regarding `CCOc1ccc(-c2nc(CSc3nnc(C)s3)cs2)cc1OC`, the AC50 under setting [2] is 0.326 µM [rising, full curve].
Regarding `COc1cc(/C=C2\C(=N)N3N=C(C(C)C)SC3=NC2=O)ccc1OCCOc1ccc(NC(C)=O)cc1`, the cell number change worked out at 1.39%. Further, under setting [1], the AC50 is 6.51 µM [rising, single point].
Turning to `CC1Cc2ccccc2N1C(=O)Cn1cc([N+](=O)[O-])cn1` (stereo not drawn), the cell number change was -1.19%. Moreover, the concentration at half-maximal activity (AC50) under setting [2] was 5.8 µM [rising, single point]. Under setting [1], the AC50 is 6.51 µM [rising, partial curve].
With `COc1ccc(CNC(=O)C2Cc3ccccc3CN2C(=O)c2ccco2)cc1` (stereo not drawn), the AC50 is, setting by setting: under setting [2], 2.31 µM [falling, partial curve]; under setting [1], 2.31 µM [falling, partial curve].
`Cc1ccc(NC(=O)COc2cccc(/C=C3\SC(=S)N(CCC(=O)O)C3=O)c2)cc1Cl`: the cell number change was -24.5%. Further, the AC50 under setting [1] was 32.6 µM [falling, single point].
Regarding `COc1cccc(/C=N/NC(=O)CCCc2ccc(OC)c(C)c2)c1`, the cell number change is -15.6%. Moreover, the AC50 under setting [1] was 32.6 µM [falling, single point].
`Cc1n[nH]c(C)c1S(=O)(=O)N1CCC(C(=O)N2CCn3c2nc2ccccc23)CC1`: the cell number change amounted to 34.7%. Under setting [2], the AC50 was 5.17 µM [rising, partial curve]. Further, the AC50 under setting [1] was 2.31 µM [rising, single point].
Take `COc1ccc2c(c1)C(=O)C(=O)N2`: the cell number change is 6.51%. Under setting [1], the concentration at half-maximal activity (AC50) is 1.16 µM [rising, full curve].
`CCn1c(=S)sc2c(=O)n(CC(=O)Nc3cc(OC)ccc3OC)c(C)nc21`: the cell number change is -2.75%. In addition, under setting [1], the AC50 was 29.1 µM [rising, single point].
Turning to `O=S(=O)(NC1CC1)c1ccc(S(=O)(=O)N2CCCC3(CCCCC3)C2)cc1`, the cell number change was -19.9%. Moreover, under setting [1], the AC50 is 2.06 µM [falling, partial curve].
`CC(CCc1ccccc1)NC(=O)COC(=O)C1CCC(C(C)(C)C)CC1` (stereo not drawn): the cell number change was -58.1%. In addition, the AC50 under setting [2] is 20.6 µM [falling, partial curve]. Moreover, under setting [1], the half-maximal activity concentration (AC50) is 9.2 µM [falling, partial curve].
`N#CC1(NC(=O)CSc2nnc(Nc3ccccc3F)s2)CCCC1`: the cell number change was determined as 0.373%. Moreover, under setting [1], the AC50 is 0.0326 µM [falling, full curve, poor fit].
Regarding `O=C(NC1(C(F)(F)F)N=C2SCCN2C1=O)C1CCCCC1` (stereo not drawn), the cell number change is -20.2%. For the same molecule, the AC50 under setting [1] was 0.461 µM [falling, single point].
On to `O=C(c1ccc2ccccc2c1)N1CCCC1`, for which the cell number change is 7.77%.
Consider `COc1ccccc1N1CCN(C(=O)C2CCCN(S(=O)(=O)c3ccc4c(c3)CCCN4C(C)=O)C2)CC1` (stereo not drawn), for which the cell number change was -8.56%. Also, under setting [1], the AC50 was 5.8 µM [rising, single point].
For the molecule `O=C1OC(Nc2nccs2)c2ccccc21` (stereo not drawn), the cell number change came out at 8.93%. Besides, the concentration at half-maximal activity (AC50) under setting [1] is 2.31 µM [falling, partial curve].
In the case of `COc1cccc(Oc2coc3c(CN4CCOCC4)c(O)ccc3c2=O)c1`, the cell number change amounted to 11.6%.
For the molecule `O=C1c2ccccc2C(Nc2ccc(Cl)cc2)N1CCN1CCOCC1` (stereo not drawn), the cell number change turned out to be 40.2%. In addition, under setting [2], the AC50 is 23.1 µM [rising, single point]. Moreover, the AC50 under setting [1] was 25.9 µM [rising, single point].
Consider `CCCCn1nc(C(=O)NCC(=O)Nc2c(C)cccc2C)c2ccccc2c1=O`, for which the cell number change was -4.81%. The AC50 under setting [1] is 1.84 µM [rising, partial curve].
On to `CCN1CCN(CCNC(=O)c2ccc(CS(=O)(=O)c3ccccc3C)o2)CC1`, for which the cell number change is -21.4%.
Turning to `N=c1c(S(=O)(=O)c2ccc(Br)cc2)cc2c(=O)n3ccccc3nc2n1Cc1ccco1`, the cell number change stood at 5.07%. Further, under setting [1], the AC50 is 0.82 µM [rising, single point].
Consider `CC(=O)C1=C(O)C(=O)N(CCC(=O)O)C1c1ccccc1Cl` (stereo not drawn), for which the cell number change is -66.6%. Moreover, the concentration at half-maximal activity (AC50) under setting [2] is 5.17 µM [falling, full curve]. Moreover, the concentration at half-maximal activity (AC50) under setting [1] is 6.51 µM [falling, single point].
Consider `C/C(=N\NC(=S)Nc1ccccc1C)c1ccc(O)cc1`, for which the cell number change was found to be 56.6%. The AC50 under setting [2] was 29.1 µM [rising, partial curve, poor fit].
On to `C#CCOCCOCCOCCNc1nc(N2CCN(C(=O)CCCCCCCCCCNC(=O)[C@H](CCCCN)n3cc(CCO)nn3)CC2)nc(N2CCN(C(=O)CCCCCCCCCCNC(=O)[C@H](CCCCN)n3cc(C[C@@H](C)CC)nn3)CC2)n1`, for which the AC50 under setting [2] was 2.91 µM [falling, partial curve].
`Cc1ccc(-c2cc(C(=O)N/N=C/c3c(C)nn(C)c3C)c3ccccc3n2)cc1C`: the cell number change is -36%. Further, under setting [2], the AC50 was 32.6 µM [falling, single point]. Under setting [1], the half-maximal activity concentration (AC50) is 0.92 µM [rising, full curve].
For `COc1cccc(COC(=O)c2cc(=O)[nH]c3ccc(S(=O)(=O)N4CCOCC4)cc23)c1OC`, the cell number change was -15.6%. Besides, under setting [1], the AC50 is 0.116 µM [rising, partial curve, poor fit].
On to `Cc1cc(=O)oc2c3c(cc(OCC(=O)NCc4ccco4)c12)OC(C)(C)CC3`, for which the cell number change is -15.9%. Also, under setting [1], the AC50 was 1.84 µM [rising, partial curve].
Turning to `CCC(=O)c1cn(CC(=O)Nc2ccc(OC)cc2)c2ccccc12`, the cell number change amounted to 2.91%. Besides, the AC50 under setting [1] was 29.1 µM [rising, single point].
